Results on 37 compounds are retold here after PubChem BioAssay AID2685 (National Center for Advancing Translational Sciences (NCATS), 2010).

This test is described as follows: qHTS Assay for Lipid Storage Modulators in Drosophila S3 Cells.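 For cell number change: cells counted by Cell Tracker Red CMTPX staining in the red channel.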 The following applies: BODIPY lipid droplet fluorescence, 18-24 h; for cell number change: measured here: cell count max response, cells fed with added oleic acid. The method, boiled down:
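Drosophila S3 cells got compounds at several concentrations plus oleic acid (400 uM solution). Laser-scanning cytometry with 488 nm excitation read lipid droplets at 500-530 nm and cells at 575-640 nm. Percent activity was relative to 20 uM Triacsin C.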

Setting [1] is: measured here: cell number channel AC50, cells fed with added oleic acid.
[2] abbreviates: measured here: lipid fluorescence (Fed channel) AC50, cells fed with added oleic acid.

Some of the results follow. These are further read-outs of the screen, such as a control signal, another cell line or another target. No call is given for them. Most of these compounds were active or inconclusive in the main read-out, so they are no random draw. The note in brackets gives the kind of curve behind each potency; many fits are weak.

As to `CCCCn1c(N)c(N(CC(C)C)C(=O)c2cc(S(=O)(=O)N3CCOCC3)ccc2Cl)c(=O)[nH]c1=O`, the cell number change amounted to 39.6%. For the same compound, the AC50 (in general, the concentration giving half of the maximal activity seen) under setting [1] was 16.4 µM [rising, single point].

Take `Oc1ccc(Cn2ccnc2)c2cccnc12`: the cell number change was -31.2%. Besides, the AC50 under setting [2] was 32.6 µM [falling, single point].

Take `Cc1ccc(NC(=O)[C@@H](NC(=O)c2cccc(S(=O)(=O)N3CCOCC3)c2)C(C)C)cc1C`: the cell number change was found to be 22.9%. The AC50 under setting [2] was 7.31 µM [falling, single point].

In the case of `CCOc1ccc(-c2nc(CSCC(=O)N3CCN(C(=O)c4ccco4)CC3)c(C)o2)cc1`, the cell number change is -8.8%. Under setting [2], the concentration at half-maximal activity (AC50) was 0.00411 µM [rising, full curve, poor fit].

Consider `COc1ccc(C(=O)NCCN2CCOCC2)cc1S(=O)(=O)Nc1ccc(C)cc1`, for which the cell number change is 11.3%.

`COc1cccc(C(=O)N(C)C(C)c2nc3ccccc3s2)c1` (stereo not given): the cell number change is 3.33%. In addition, under setting [2], the AC50 is 0.116 µM [rising, full curve, poor fit].

For the compound `O=C(Nc1cccc(C(F)(F)F)c1)c1ccccc1NC(=O)C1CCCCC1`, the cell number change is -9.1%. Under setting [2], the AC50 is 18.4 µM [falling, single point].

As for `O=C(CN1CCOCC1)N1c2ccccc2Sc2ccccc21`, the cell number change came out at 18.1%. Further, the AC50 under setting [1] is 0.58 µM [rising, full curve, poor fit].

`Cc1ccc(S(=O)(=O)CC(=O)NC2CC2)cc1`: the cell number change is -43.7%. Also, the AC50 under setting [1] was 32.6 µM [falling, single point]. The AC50 under setting [2] is 29.1 µM [falling, partial curve].

Take `Cc1cccc(NC(=O)c2ccc(Cl)c(S(=O)(=O)N3CCCCCC3)c2)n1`: the cell number change is 8.33%. Besides, the AC50 under setting [2] is 2.31 µM [rising, partial curve].

With `O=C(CCCCC(=O)NCc1cccs1)NCc1cccs1`, the AC50 under setting [2] was 23.1 µM [falling, partial curve].

As for `COc1ccc(NC(=O)c2nnn(Cc3cccc(F)c3)c2N)c(OC)c1`, the cell number change turned out to be 17%. In addition, under setting [2], the AC50 was 0.13 µM [rising, full curve, poor fit].

As to `COc1ccccc1Nc1nc(-c2ccccc2)nc2ccccc12`, the cell number change was 8.29%. In addition, the AC50 under setting [2] was 7.31 µM [rising, partial curve, poor fit].

As to `CN(C)C/C=C/C(O)(c1ccccc1)c1ccccc1`, the cell number change was -33.9%.

On to `Cc1ccc(S(=O)(=O)N2CCCC(C(=O)NCc3ccccc3F)C2)cc1` (stereo not given), for which the cell number change is -1.32%.

As for `O=C(NCc1ccccc1)c1ccc(CS(=O)(=O)c2ccc(Br)cc2)o1`, the cell number change turned out to be 1.21%. Moreover, under setting [2], the AC50 is 29.1 µM [rising, single point].

Regarding `O=C(C1CCN(S(=O)(=O)c2ccc(Cl)c(C(F)(F)F)c2)CC1)N1CCC1`, the cell number change was -15.1%. Besides, the AC50 under setting [2] is 29.1 µM [falling, single point].

In the case of `Cc1cccc(NC(=O)Cn2ccn(-c3ccc4c(c3)OCCO4)c(=O)c2=O)c1`, under setting [2], the half-maximal activity concentration (AC50) is 6.51 µM [falling, single point].

`O=C(COC(=O)c1ccc(S(=O)(=O)NCc2ccco2)cc1)Nc1ncc(Cl)cc1Cl`: the cell number change worked out at 2.45%. Moreover, the AC50 under setting [1] is 0.116 µM [falling, full curve].

On to `O=C(c1cc2ccccn2n1)N1CCCC1`, for which the cell number change is -10%. For the same compound, the AC50 under setting [1] was 1.16 µM [falling, partial curve, poor fit]. Besides, the AC50 under setting [2] is 0.461 µM [falling, partial curve].

For the compound `COc1ccc2nc(NNC(=O)c3cc(=O)c4ccccc4o3)sc2c1`, the AC50 under setting [2] is 5.8 µM [falling, full curve].

As for `COC(=O)c1cccc(NC(=O)CC2C(=O)NCCN2C(=O)Nc2ccccc2)c1` (stereo not given), under setting [2], the AC50 was 16.4 µM [rising, partial curve, poor fit].

Turning to `CNCc1cc(Br)c(OCC(=O)Nc2ccccc2OC)c(OC)c1`, the cell number change is -77.5%. For the same compound, the AC50 under setting [1] was 1.16 µM [falling, full curve, poor fit]. The AC50 under setting [2] was 16.4 µM [falling, partial curve].

Turning to `COC(=O)c1sc2nc(CSc3nc4ccc(C)cc4[nH]3)[nH]c(=O)c2c1C`, the cell number change came to 36.8%. Besides, under setting [1], the AC50 is 29.1 µM [rising, single point].

For `COc1ccccc1NC(=S)NNC(=O)c1cc(C)nn1C`, the cell number change stood at 18.4%. Besides, the AC50 under setting [1] was 6.51 µM [rising, single point]. Besides, the AC50 under setting [2] was 6.51 µM [rising, single point].

With `Cc1ccc(NC(=O)CSc2ccc(-c3ccccn3)nn2)c(C)c1`, the AC50 under setting [2] was 6.51 µM [rising, partial curve, poor fit].

In the case of `CCCCC(=O)Nc1cc2nn(-c3ccc(OC)cc3)nc2cc1C`, the AC50 is 0.411 µM [rising, full curve, poor fit] under setting [1] and 2.91 µM [rising, single point] under setting [2].

Consider `O=C(Nc1ccccc1C(=O)O)c1ccccc1`, for which the cell number change is -1.11%. Also, the AC50 under setting [2] is 0.411 µM [falling, full curve, poor fit].

Take `Cc1nc(-c2ccc(Cl)cc2)sc1C1(C)CC(c2cccc([N+](=O)[O-])c2)=NO1` (stereo not given): the cell number change was 4.03%. For the same compound, under setting [2], the AC50 was 2.06 µM [rising, full curve].

For `Cc1ccc(-c2nc(NCc3ccco3)c3ccccc3n2)cc1`, the cell number change was -23.7%. The AC50 under setting [2] is 1.64 µM [falling, partial curve].

For the compound `O=C(c1cc2ccccc2o1)N1CCN(Cc2ccccc2)CC1`, the cell number change amounted to 92%. Also, the AC50 under setting [1] was 29.1 µM [rising, partial curve, poor fit]. For the same compound, under setting [2], the AC50 was 1.46 µM [rising, full curve].

In the case of `CCCCn1c(N)c(N(CC(C)C)C(=O)Cn2c(=O)cnc3ccccc32)c(=O)[nH]c1=O`, the cell number change was -0.5%.

`C[C@]12CC[C@@H]3c4ccc(OS(=O)(=O)O)cc4CC[C@H]3[C@@H]1CCC2=O`: the cell number change is -29.6%. Besides, the AC50 under setting [2] is 32.6 µM [falling, partial curve, poor fit].

Regarding `CCOC(=O)N1CCN(S(=O)(=O)c2ccc(F)c(C(=O)Nc3cccc(C)c3C)c2)CC1`, the cell number change is -1.15%. The AC50 under setting [2] is 0.731 µM [falling, single point].

As to `C/C=C/C=C\C(=O)Nc1cccc(C2=NOC3(C2)C[C@@H](C(N)=O)N(C(=O)/C(C)=C/C)C3)c1` (stereo not given in full), the cell number change stood at 22.3%. For the same compound, the AC50 under setting [2] was 16.4 µM [rising, single point].

Turning to `O=C1NC(=O)/C(=C\c2cn(CC(=O)N3CCOCC3)c3ccccc23)S1`, the cell number change was 0.952%.

On to `CC(CCc1ccc(O)cc1)N1CCC(Oc2ccc(C(=O)N3CCCC3)cc2)CC1` (stereo not given), for which the cell number change stood at 24.4%. Moreover, under setting [1], the AC50 was 0.082 µM [rising, full curve, poor fit]. Moreover, the AC50 under setting [2] was 20.6 µM [rising, partial curve].
